Measurements taken from PubChem BioAssay AID1508600 (Functional Genomics Laboratory (NCATS/FGL), 2020).
The campaign covered roughly 53,000 sequences. About 3,700 (7%) were called active.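 The calls were made as follows: active = gene knockdowns whose robust z-score for IL-1 alpha signal is at least 2 or at most -2, so actives lie on both sides; inactive = the rest.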 Some of the results follow.

test: Components of the Cytosolic LPS Sensing Pathway: Gene Identification via Genome-wide siRNA Screen; settings: RAW264.7 macrophages, IL-1a HTRF, actives lie on both sides, screened at 100 nM (by protocol), cells primed 5 h with Pam3CSK4 first
Excerpt: Non-canonical inflammasome activation by cytosolic LPS is a critical component of the host response to Gram-negative bacterial infection, however we lack a comprehensive understanding of the cellular processes that control this pathway. Here we describe a genome-wide siRNA screen to identify genes regulating the mouse macrophage IL-1 alpha response to cytosolic LPS.
RAW264.7 cells were maintained in complete DMEM media, comprising DMEM with 4.5 g/L glucose, 10% FBS (Gemini Bio-Products, West Sacramento, CA), 2 mM Glutamine (Lonza) and 20 mM HEPES (Lonza), hereafter complete DMEM.
The RNAi screen was conducted in 384-well format using the Ambion Silencer Mouse Genome siRNA Library (#4391425), which consists of three unique, nonoverlapping, nonpooled siRNAs for each of 17,000 gene targets. siRNA reagents ([…]) were stamped into 384-well white flat-bottom microplates (Corning, 3570) using a Velocity11 VPrep liquid handling system (Agilent) integrated into a BioCel robotic platform (Agilent) in columns 1-22, leaving columns 23-24 empty for negative (Ambion, Negative control #1) and positive (mouse Casp4) controls, respectively. The median value of each plate's negative control column was used to normalize sample wells, and the positive control was used to assess transfection efficiency and assay performance.
Lipofectamine RNAiMAX Transfection Reagent ([…]; Invitrogen) was added in […] serum-free, antibiotic-free media to plate wells using a Thermo Scientific Matrix WellMate and Microplate Stacker. Plates were incubated for 45 min at room temperature to allow for the sufficient formation of siRNA-lipid complexes. Cells were seeded at a density of 1x10^4 cells per well in 20 microL media containing 20% (vol/vol) FBS without antibiotics. The final concentration of siRNA in each well was 100 nM. Cells were cultured for 48h at 37 degrees C in 5% CO2 before addition of […] of TLR ligand Pam3CSK4 for 5 hours. The medium was then removed, replaced with […] growth media and cell were transfected with […] of LipidA and TransIT-TKO (Mirus) for 24 hour. At the end of the LipidA treatment, […] of supernatant was transferred to a 384 Greiner Bio-one non-binding low volume plate and […] of IL-1a HTRF reagent (Cisbio, 62MIL1APEH) was added and incubated at room temperature overnight. The plates were read on an EnVision plate reader (PerkinElmer). Cell viability was measured by adding 20ul Cell Titer Glo to the original plate and running a luminescence read on the EnVision. The quantified IL-1a signal for each siRNA gene-targeted well was divided by the median of the negative control wells and multiplied by 100 to achieve a negative control normalized value for each well/siRNA. This normalized value was then used to generate a robust z-score by first taking the log of each value and then by subtracting the median and dividing by the […].

| Sequence | z-score |
| --- | --- |
| CGAAGUGAAAAGUAUGACCTT against Lrrc72 | inactive: -0.083 |
| GGCAACAGACAAACAGCCGTT against Ugcg | inactive: -1.54 |
| GGCUUUUGAAAAGUUCACATT against Rnf32 | active: -2.05 |
| GGAGCUUAAAGUGAGCGGCTT against Lage3 | inactive: -0.859 |
| GGAAACACCUUUGAGGCUCTT against Kndc1 | inactive: -1.88 |
| CGAGAUAAACCAUACCUGGTT against Zfp61 | inactive: 1.72 |
| CGCCCUUGGAGGUUAAUCATT against Nsg2 | inactive: 0.26 |
| GCCUCUGAGAUAAAAUUUGTT against Klf6 | inactive: -1.53 |
| GGCUGUAUAAAUCAGAUUATT against 1600012H06Rik | inactive: 1.37 |
| GGCGGUCAAAUACAAAAGGTT against Pde1a | inactive: 0.553 |
| GCUGAGUGAUCGAUCUUAATT against Golt1a | inactive: 1.95 |
| CCUCAACUGGUUCCCUAACTT against Spatc1 | inactive: -1.73 |
| CCAGUUGGAAAUAUGACGATT against Fryl | inactive: -0.184 |
| GGGUUUGAGGAAGUUAAGATT against Slc5a3 | inactive: -0.555 |
| GCUCAAAGCUUAUGAUUUCTT against Commd2 | inactive: 0.334 |
| CCUCUGGUCUCUUAGAAAGTT against Fxn | inactive: 0.163 |
| GGCUGAGGCUGUGAAGAAGTT against Igfbp5 | inactive: -0.659 |
| GCUCUUAGGGAAGAAUAUUTT against Arnt | inactive: -0.862 |
| GGCCAGAUAGCAAAACAGCTT against Mpst | inactive: 0.897 |
| GGAAUUCGGUUUCAGCUUCTT against Hax1 | inactive: -0.354 |
| GGUAAAGUUGCUUAAUUAGTT against Msl3l2 | inactive: 0.944 |
| GGAGAUUGAACAGUCAAACTT against Pex5 | active: 3.01 |

| Sequence | z-score |
| --- | --- |
| GGAUAUUGAUGCAUACUUUTT against Noc3l | inactive: 0.907 |
| GGUUUGCUGAAUGUCAUUUTT against Magea2 | inactive: -1.54 |
| GGUGUAUGGAUUUUAUGAUTT against Ppp6c | inactive: -1.11 |
| CGGUAUCUCAACUUUUACATT against Stra8 | inactive: 0.685 |
| GGAUGAAACAAGUGAAGAUTT against Papola | inactive: -1.07 |
| GAAUGAACUGCUGAAAAAGTT against Klra16 | inactive: 0.462 |
| GCUUAUAGGCCUAUAUGCCTT against Inppl1 | inactive: -0.571 |
| CCUUAUUUCGAGCUGUGAATT against Smim8 | inactive: -1.15 |
| GGGUUUGUGUUUAGUGAAUTT against Mindy3 | inactive: -1.89 |
| GGAUGACAUUUCAGUGUGGTT against Matn4 | inactive: 0.561 |
| GCCAGUGAUGGAAUUGUAATT against Rrm2b | inactive: -0.457 |
| GGUGUUGUCUUACAUUAAUTT against Esam | inactive: -0.0651 |
| GAAGAAGGAAAAAAACCCATT against Sec61b | inactive: -1.19 |
| GGUGUUUGGGAAAGGUCUGTT against Trpm1 | inactive: -1.33 |
| GGACAACCAAAUUCUCAAGTT against Olfml3 | inactive: 0.377 |
| GGAAUUUAAACUGAAGGAUTT against Fkbp9 | inactive: 0.271 |
| GCCUCAAAAUGGCGGAACUTT against Casp8 | inactive: -0.249 |
| GGAAAUCUGAGUGUGCACUTT against Pcdhgb1 | inactive: 1.45 |
| GGAUUUACCAAGUCUAUUGTT against Ccdc174 | inactive: 0.238 |
| GGUUCUAUGCUGAAGGUCATT against Lhfpl2 | inactive: 0.358 |
| GCCAAAUAUUAGCGCGAAGTT against Mgp | inactive: 0.888 |
| CGGAACACCAAUAAGAGAATT against Hgd | inactive: -0.667 |

| Sequence | z-score |
| --- | --- |
| GGAAAUCACCAUCCUUCGUTT against Map4k2 | inactive: 0.443 |
| GGUCCCAGCUGUUAUAAGUTT against Foxi2 | inactive: 0.861 |
| GGACAAAACCUCAGUUGAUTT against Bves | inactive: 1.05 |
| GCCCUGGUUCCUAACCAAUTT against Nudt12 | inactive: 0.0896 |
| CCAUAAACAAUCACUUGUATT against Ccnf | inactive: -0.953 |
| GGAUUGAAGAGCUUAACAATT against Mta1 | inactive: 0.155 |
| GCUCAAGAGUCUAACUCCCTT against Serinc4 | inactive: 0.558 |
| GGGCUUCCUUCAGAAGAGUTT against Slc38a3 | inactive: 0.652 |
| CCAGGGUAUAGUUUUCAACTT against Zfp940 | inactive: -0.41 |
| GGCCGAAGAAGUCUUCGAUTT against Cavin4 | inactive: -0.0667 |
| GGACUAGAGAAAGUGUGCATT against Egf | inactive: 0.728 |
| GGUUAUUUUUAGCUUCAGUTT against Lrpprc | inactive: -0.0769 |
| GGAAGAGGAGAGGAAGAAGTT against Dync1i1 | inactive: 1.91 |
| GGAGUGCGUCUUUGAGAAUTT against Fgf11 | inactive: -0.0446 |
| GCAUGUGGUACAGAUAGCUTT against Kif24 | inactive: 0.683 |
| CGUAUUGACAGUGGAAAUCTT against Gpr12 | inactive: 0.423 |
| GUCCGAGUAGGUGAUACAATT against Jaml | inactive: 0.727 |
| GGAAACAACGGAUCCAAAATT against Plcb3 | inactive: 1.33 |
| GGGAUCCAAUCAAGAAGUATT against Lmcd1 | inactive: -1.01 |
| CCUUGAUUGAGCCUGACUUTT against Hook2 | inactive: 0.543 |
| GGAAAAAGAUGUCCUAUCUTT against Rufy2 | inactive: -1.08 |
| CGGACAGUAUCACAAUCGUTT against Mrpl42 | inactive: 1.42 |

| Sequence | z-score |
| --- | --- |
| GCAGCAAUGGUUUAACACCTT against Smim14 | inactive: 0.431 |
| GGUGAUAAAGGCUGGAGUGTT against Wnt9a | inactive: 0.0973 |
| GGGACAGAGAAUGAAGAUGTT against Tnfrsf21 | inactive: -1.04 |
| CCUACUCAUUUGAAUCAAGTT against Itih2 | inactive: 1.8 |
| GCCGCGUUUUGACUGAUCATT against Usp24 | inactive: -1.82 |
| GGUAUUUAUCUGAAUCUGATT against Dennd2c | inactive: 0.668 |
| CGAAGCCAUAAAUUUCAUATT against Aldh3a2 | inactive: 0.554 |
| GCCUGUUGCUAUGAAUGGUTT against Zfp597 | inactive: -0.353 |
| GGUGAAUAACUGCUCUAUCTT against Zp1 | inactive: -0.205 |
| AUUUGGUUGCCUUACAACUTT against Olfr868 | inactive: -0.94 |
| GGCAUAGGAGGAUUCUCUUTT against Slc15a4 | inactive: -0.536 |
| CCGAGAUAUGAAUCAAAUUTT against Wars | active: 2.19 |
| GGAGAAACUUCGAGAUAGATT against Isoc2b | inactive: -1.39 |
| GCCUUAUCUAAAAGCCAAGTT against Ckap2l | inactive: 0.664 |
| GGUGGAAUGAUAGUGUUCATT against Neurl1b | inactive: 1.67 |
| GGGAAAAAGAACAAAAGCATT against Aarsd1 | inactive: -0.344 |
| CCAAUGGGAACAGUCCUGATT against Cela2a | inactive: -0.832 |
| GGUCAAGCUUAAAAAACCCTT against Dennd6b | inactive: -1.75 |
| GGUUGAAUAGCACUGGGACTT against Slitrk5 | inactive: -1.35 |
| GGAGCACAACAUUUUUAUGTT against Atp6v0d2 | inactive: 0.0663 |
| CAUCCCGCAUUCCAGUUACTT against Rgs3 | inactive: 0.823 |
| GCUUUUCAUACCUGUUUCCTT against 9930111J21Rik2 | inactive: -0.227 |

| Sequence | z-score |
| --- | --- |
| CGAUUAUGACCUGAUCAUATT against Serpinb13 | inactive: 0.999 |
| GGUGUUAAUGAGGACACUUTT against Slc25a22 | inactive: -0.337 |
| GGGCUUCUUACCAGUCAGATT against Nuf2 | inactive: -0.0662 |
| GGUGAGACUAUAAAGAUAATT against Piwil4 | inactive: 0.841 |
| GGAGGUUAUACCAACCUUUTT against Mcm4 | inactive: -0.0511 |
| GCUUGUUCAGGAAAUGAAATT against Tmcc3 | inactive: -1.15 |
| GCUUAACGAGCCUUAGAAATT against Btf3l4 | inactive: -0.468 |
| GCUACAGGAUAAGUCCAAUTT against Kpnb1 | active: -2.01 |
| GAAAUCAUCCUGCCCAAAGTT against Vax1 | inactive: 0.874 |
| GAAUAGAAGGGAAGAAAGUTT against Crb3 | active: -2.08 |
| GGAAGUGUUUGAUGUUCUUTT against Gtf2ird1 | inactive: 0.0156 |
| CGGCACCUUCUACACAUCATT against Sirt2 | inactive: -1.41 |
| GCAAAUCAUACCUACCGGCTT against Cuzd1 | inactive: 0.278 |
| GGUGCUGAUCUUGAACUACTT against Slc22a6 | inactive: 1.7 |
| GGCACUCCUCAAUAUAGAUTT against Elf1 | inactive: 0.267 |
| GAAGAUGUACAGAUUUUCCTT against Tomm22 | inactive: 0.616 |
| GGAGAGACGCGCUAUUAUATT against Bub1b | inactive: 0.934 |
| GGAAGUUCAACACCUCCAGTT against Lrrc45 | inactive: -1.82 |
| GGGAUUUCGAGAGACUAGCTT against Dock9 | inactive: -0.487 |

A different layout for some results above:
Sequence | z-score
CGGCACCUUCUACACAUCATT against Sirt2 | inactive: -1.41
GCAAAUCAUACCUACCGGCTT against Cuzd1 | inactive: 0.278
GGUGCUGAUCUUGAACUACTT against Slc22a6 | inactive: 1.7
GGCACUCCUCAAUAUAGAUTT against Elf1 | inactive: 0.267
